In article doi:10.1101/2020.11.12.379313 one finds binding data, which are given here for one molecule.

Results are given in words; binding and its absence hold for the method and conditions named. In cells and extracts the contact can be indirect. Some binding calls cover weakened binding; strength is not graded here. Where a sequence is shown, tags or fusion partners need not be part of it.

This test concerns the target Flag-APP-C99, P05067. Description: co-IP. The settings on record: remark: other sources report otherwise.

B1: human GSAP-16k with HA tag (a.a. 733 to a.a. 854), A4D1B5 733-854 (domain or fragment)
chain: RLMKDLDNTEKNEKLKFSIIVRLPPLIGQKICRLWDHPMSSNIISRNHVTRLLQNYKKQPRNSMINKSSFSVEFLPLNYFIEILTDIESSNQALYPFEGHDNVDAEFVEEAALKHTAMLLGL
Take B1: the binding entry was “binds”.
